PubChem BioAssay AID686938 – Drosophila RNAi Screening Center, 2013

Screen: 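Looking for CRAC channel components and the factors controlling them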 (primary screen)
Cell system: Drosophila S2R+ cells
Knock-down reagent: long dsRNA against Drosophila genes, about 0.25 µg dsRNA per well, roughly 10,000 cells
Timing: 5 days of knock-down before the calcium assay
Treatment: thapsigargin (SERCA pump blocker) to empty calcium stores; entry signal taken 4 min after adding it
Measurement: 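Duplicate raw fluo-4 intensities per well from a plate reader, at rest and four minutes after thapsigargin emptied calcium stores; entry-to-rest ratio filled for only some wells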
Direction: calcium entry signal: higher = stronger calcium signal after store depletion; entry to resting ratio: higher = more calcium entry relative to resting level; resting calcium signal: higher = higher resting calcium signal
Active means: 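Called when the plate z-score of the entry-to-rest ratio, mean of duplicates, falls below −3; wells with low overall dye signal (Fmax z below −2) or more than five off-targets excluded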
Meaning of the calls: active = strongly reduced calcium entry; inactive = no strong reduction
The deposit covers about 23,000 reagents; below is an unselected part of those with a known target gene and a result. In the full data, 75 (0.33%) are marked active. 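Raw plate signals without normalisation; calls rest on plate z-scores that were not deposited; ratio present for only 364 wells.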 Names joined by + are all predicted targets of the reagent. Not stated in the record: the dose of the treatment.

| gene knocked down | DRSC id | calcium entry signal, replicate 1 (fluorescence units) | calcium entry signal, replicate 2 (fluorescence units) | entry to resting ratio | resting calcium signal, replicate 1 (fluorescence units) | resting calcium signal, replicate 2 (fluorescence units) | Outcome |
| --- | --- | --- | --- | --- | --- | --- | --- |
| Eglp2 | DRSC04294 | 3.88e7 | – | – | 2.00e7 | – | inactive |
| Hel89B | DRSC16700 | 4.35e7 | 4.43e7 | – | 1.98e7 | 2.33e7 | inactive |
| Hel89B | DRSC21575 | 4.34e7 | 3.83e7 | – | 2.85e7 | 1.84e7 | inactive |
| CG3376 | DRSC04362 | 3.90e7 | – | – | 1.97e7 | – | inactive |
| CG33468 | DRSC22940 | 3.89e7 | 3.62e7 | – | 1.91e7 | 1.57e7 | inactive |
| Or67c | DRSC11242 | 3.45e7 | 3.55e7 | – | 1.71e7 | 1.53e7 | inactive |
| Mcm6 | DRSC18680 | 3.58e7 | 3.98e7 | – | 1.76e7 | 1.79e7 | inactive |
| Klp67A + CG34456 | DRSC10420 | 1.46e7 | 2.32e7 | – | 8.15e6 | 9.87e6 | inactive |
| CG8252 | DRSC07126 | 4.90e7 | 4.39e7 | – | 2.04e7 | 1.96e7 | inactive |
| CG43121 | DRSC10457 | 3.28e7 | 4.45e7 | – | 1.51e7 | 2.86e7 | inactive |
| CG7675 | DRSC16280 | 4.85e7 | 4.14e7 | – | 2.16e7 | 1.90e7 | inactive |
| mah | DRSC14645 | 3.74e7 | 8.82e7 | – | 1.68e7 | 3.14e7 | inactive |
| Exo84 | DRSC15965 | 4.13e7 | 5.02e7 | – | 2.19e7 | 2.08e7 | inactive |
| CG5021 | DRSC10469 | 3.30e7 | 4.65e7 | – | 1.64e7 | 2.06e7 | inactive |
| CG31517 | DRSC13010 | 3.97e7 | 3.81e7 | – | 2.46e7 | 1.68e7 | inactive |
| CG13833 | DRSC14683 | 5.32e7 | 5.00e7 | – | 2.45e7 | 2.02e7 | inactive |
| CG13192 | DRSC06317 | 3.21e7 | 4.14e7 | – | 1.76e7 | 1.92e7 | inactive |
| CG32669 | DRSC18864 | 5.01e7 | 3.39e7 | – | 2.16e7 | 1.55e7 | inactive |
| CG34347 | DRSC14047 | 6.66e7 | 4.10e7 | – | 3.37e7 | 1.87e7 | inactive |
| CG34347 | DRSC14305 | 4.11e7 | 4.51e7 | – | 2.19e7 | 2.17e7 | inactive |
| CG34347 | DRSC15104 | 4.05e7 | 3.23e7 | – | 2.01e7 | 1.51e7 | inactive |
| CG34347 | DRSC15105 | 4.55e7 | 2.28e7 | – | 2.16e7 | 1.39e7 | inactive |
| CG34347 | DRSC23044 | 3.73e7 | 3.32e7 | – | 1.88e7 | 1.59e7 | inactive |
| spg | DRSC14373 | 4.11e7 | 6.33e7 | – | 2.07e7 | 2.71e7 | inactive |
| spg | DRSC14881 | 3.68e7 | 5.65e7 | – | 1.91e7 | 2.46e7 | inactive |
| CG33978 | DRSC17106 | 5.14e7 | 2.79e7 | – | 2.30e7 | 1.28e7 | inactive |
| CG30430 | DRSC22260 | 1.93e7 | 3.22e7 | – | 9.61e6 | 1.63e7 | inactive |
| Crg-1 | DRSC22882 | 4.39e7 | 2.49e7 | – | 2.10e7 | 1.24e7 | inactive |
| CG17646 | DRSC00507 | 4.91e7 | – | – | 2.73e7 | – | inactive |
| CG6431 | DRSC02956 | 2.30e7 | 3.74e7 | – | 1.18e7 | 1.70e7 | inactive |
| CG6294 + CG6299 + CG15642 | DRSC19981 | 2.46e7 | 3.24e7 | – | 1.40e7 | 1.50e7 | inactive |
| CG13024 | DRSC09904 | 2.81e7 | 5.55e7 | – | 1.56e7 | 2.37e7 | inactive |
| inaF-B | DRSC18903 | 2.83e7 | 2.66e7 | – | 1.37e7 | 1.32e7 | inactive |
| CG32091 | DRSC10141 | 2.19e7 | 2.60e7 | – | 1.14e7 | 1.19e7 | inactive |
| CG32091 | DRSC10820 | 2.23e7 | 2.84e7 | – | 1.17e7 | 1.35e7 | inactive |
| prom | DRSC04684 | 4.08e7 | 4.89e7 | – | 2.06e7 | 2.16e7 | inactive |
| prom | DRSC21463 | 1.93e7 | 2.56e7 | – | 1.04e7 | 1.11e7 | inactive |
| prom | DRSC22088 | 3.81e7 | 6.44e7 | – | 1.83e7 | 3.61e7 | inactive |
| nocte | DRSC18123 | 4.79e7 | 4.14e7 | – | 2.35e7 | 2.10e7 | inactive |
| CG14079 | DRSC10083 | 2.51e7 | 4.02e7 | – | 1.21e7 | 1.81e7 | inactive |
| alphaKap4 | DRSC09823 | 1.56e7 | 2.46e7 | – | 7.67e6 | 1.11e7 | inactive |
| Sodh1 | DRSC12605 | 3.70e7 | 4.84e7 | – | 1.66e7 | 2.05e7 | inactive |
| H15 | DRSC03339 | 2.44e7 | 2.25e7 | – | 1.23e7 | 9.99e6 | inactive |
| H15 | DRSC22199 | 3.98e7 | 6.90e7 | – | 1.88e7 | 3.07e7 | inactive |
| DnaJ-1 | DRSC11145 | 3.60e7 | 2.70e7 | – | 2.50e7 | 1.16e7 | inactive |
| CG5681 | DRSC02876 | 4.48e7 | 3.59e7 | – | 2.07e7 | 1.81e7 | inactive |
| Mms19 | DRSC12188 | 2.69e7 | 2.67e7 | – | 1.18e7 | 1.29e7 | inactive |
| CG6083 | DRSC10580 | 2.21e7 | 2.69e7 | – | 1.16e7 | 1.23e7 | inactive |
| CG44838 | DRSC10330 | 3.43e7 | 3.07e7 | – | 2.74e7 | 1.60e7 | inactive |
| CG44838 | DRSC10371 | 4.44e7 | 4.07e7 | – | 3.27e7 | 1.77e7 | inactive |
| CG6462 | DRSC10641 | 2.54e7 | 4.19e7 | – | 1.25e7 | 1.89e7 | inactive |
| Dnz1 | DRSC03317 | 4.50e7 | – | – | 2.14e7 | – | inactive |
| CG9114 | DRSC20155 | 2.17e7 | 2.27e7 | – | 1.20e7 | 1.06e7 | inactive |
| BaraB | DRSC06420 | 3.80e7 | 3.54e7 | – | 1.77e7 | 1.63e7 | inactive |
| SMC3 | DRSC20227 | 2.72e7 | 3.03e7 | – | 1.60e7 | 1.68e7 | inactive |
| CG3021 | DRSC18165 | 3.78e7 | 4.63e7 | 2.1 | 1.84e7 | 1.93e7 | inactive |
| CG3021 | DRSC18652 | 3.48e7 | 3.78e7 | 2.2 | 1.59e7 | 1.56e7 | inactive |
| Burs | DRSC14595 | 2.13e7 | 3.17e7 | – | 1.29e7 | 4.45e7 | inactive |
| Erasp | DRSC07111 | 3.12e7 | 2.52e7 | – | 1.40e7 | 1.40e7 | inactive |
| GlyRS | DRSC10711 | 3.06e7 | 4.30e7 | – | 1.41e7 | 2.71e7 | inactive |
| RhoGAP5A | DRSC18294 | 2.41e7 | 2.44e7 | – | 1.10e7 | 1.17e7 | inactive |
| aux | DRSC12161 | 3.49e7 | 3.98e7 | – | 1.57e7 | 2.91e7 | inactive |
| mus201 + Chrac-14 | DRSC03568 | 3.33e7 | 4.34e7 | – | 1.68e7 | 1.86e7 | inactive |
| mus201 + Chrac-14 | DRSC03575 | 3.10e7 | 4.20e7 | – | 1.63e7 | 1.93e7 | inactive |
| Papss | DRSC11246 | 3.09e7 | 3.47e7 | – | 1.43e7 | 2.46e7 | inactive |
| CG42337 | DRSC11686 | 3.27e7 | 4.77e7 | – | 1.54e7 | 2.11e7 | inactive |
| CG42337 | DRSC11687 | 3.17e7 | 4.73e7 | – | 1.93e7 | 2.28e7 | inactive |
| CG42337 | DRSC23099 | 4.32e7 | 3.58e7 | – | 1.68e7 | 1.40e7 | inactive |
| emc | DRSC08715 | 3.15e7 | 2.16e7 | – | 1.55e7 | 1.23e7 | inactive |
| emc | DRSC23238 | 3.00e7 | 3.05e7 | – | 1.68e7 | 1.42e7 | inactive |
| SerRS-m | DRSC14096 | 3.25e7 | 4.49e7 | – | 1.51e7 | 6.18e7 | inactive |
| ebo | DRSC18787 | 3.58e7 | 4.29e7 | – | 1.67e7 | 1.90e7 | inactive |
| CG2901 | DRSC18239 | 1.73e7 | 1.85e7 | – | 8.40e6 | 9.35e6 | inactive |
| Tom | DRSC11306 | 2.41e7 | 3.91e7 | – | 1.14e7 | 2.63e7 | inactive |
| CG5004 | DRSC19929 | 3.48e7 | 3.37e7 | – | 1.83e7 | 1.45e7 | inactive |
| CG5004 | DRSC19930 | 4.57e7 | 3.30e7 | – | 2.17e7 | 1.36e7 | inactive |
| CG5004 | DRSC20123 | 2.92e7 | 3.62e7 | – | 1.69e7 | 1.81e7 | inactive |

5 entries from above, sorted by “calcium entry signal, replicate 1 (fluorescence units)”, lowest first:
| gene knocked down | DRSC id | calcium entry signal, replicate 1 (fluorescence units) | calcium entry signal, replicate 2 (fluorescence units) | entry to resting ratio | resting calcium signal, replicate 1 (fluorescence units) | resting calcium signal, replicate 2 (fluorescence units) | Outcome |
| --- | --- | --- | --- | --- | --- | --- | --- |
| CG6431 | DRSC02956 | 2.30e7 | 3.74e7 | – | 1.18e7 | 1.70e7 | inactive |
| CG6294 + CG6299 + CG15642 | DRSC19981 | 2.46e7 | 3.24e7 | – | 1.40e7 | 1.50e7 | inactive |
| CG13024 | DRSC09904 | 2.81e7 | 5.55e7 | – | 1.56e7 | 2.37e7 | inactive |
| inaF-B | DRSC18903 | 2.83e7 | 2.66e7 | – | 1.37e7 | 1.32e7 | inactive |
| CG17646 | DRSC00507 | 4.91e7 | – | – | 2.73e7 | – | inactive |
